The other results are listed elsewhere or left out.
Tests used:
Assay in all cases: log2 fold change, soluble protein after heating vs DMSO (PISA); higher = thermal stabilisation; K562 lysate, 10 uM; active = over 0.2 and 3.5 SD of the protein, either way, in both replicates (recomputed)
[1] = compound: C#Cc1cccc(Nc2ncnc3cc(OCCOC)c(OCCOC)cc23)c1 [erlotinib]
In short: (§1)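 To prepare the extract, K562 pellets were dounce-homogenised in PBS pH 7.4 with 1 mM MgCl2, giving crude material at 1 mg/mL protein. This was treated with 10 μM compound for 30 min, then heated in aliquots for 3 min over 48°C-58°C before pooling and addition of NP-40 to 0.5% at 4°C. Centrifugation at 21,000xg for 90 min left soluble protein in the supernatant, which TMTpro 16plex LC-MS/MS quantified with equalised channel sums. Results are log-two fold changes in thermal stability compared with solvent controls, from duplicates.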

Chains of the proteins cited; added tags and fusions are not shown. Lines headed by an entry give the natural chain unless they say otherwise; changes in a name come on top.
UniProt Q9NY35: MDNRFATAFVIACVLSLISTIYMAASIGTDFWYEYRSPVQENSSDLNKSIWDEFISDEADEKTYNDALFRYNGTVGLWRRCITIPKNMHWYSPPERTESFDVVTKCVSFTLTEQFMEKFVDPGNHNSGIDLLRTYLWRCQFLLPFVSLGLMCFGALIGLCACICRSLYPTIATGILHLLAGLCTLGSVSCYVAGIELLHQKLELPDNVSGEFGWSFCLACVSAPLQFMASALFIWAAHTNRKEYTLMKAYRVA
UniProt Q96EP1: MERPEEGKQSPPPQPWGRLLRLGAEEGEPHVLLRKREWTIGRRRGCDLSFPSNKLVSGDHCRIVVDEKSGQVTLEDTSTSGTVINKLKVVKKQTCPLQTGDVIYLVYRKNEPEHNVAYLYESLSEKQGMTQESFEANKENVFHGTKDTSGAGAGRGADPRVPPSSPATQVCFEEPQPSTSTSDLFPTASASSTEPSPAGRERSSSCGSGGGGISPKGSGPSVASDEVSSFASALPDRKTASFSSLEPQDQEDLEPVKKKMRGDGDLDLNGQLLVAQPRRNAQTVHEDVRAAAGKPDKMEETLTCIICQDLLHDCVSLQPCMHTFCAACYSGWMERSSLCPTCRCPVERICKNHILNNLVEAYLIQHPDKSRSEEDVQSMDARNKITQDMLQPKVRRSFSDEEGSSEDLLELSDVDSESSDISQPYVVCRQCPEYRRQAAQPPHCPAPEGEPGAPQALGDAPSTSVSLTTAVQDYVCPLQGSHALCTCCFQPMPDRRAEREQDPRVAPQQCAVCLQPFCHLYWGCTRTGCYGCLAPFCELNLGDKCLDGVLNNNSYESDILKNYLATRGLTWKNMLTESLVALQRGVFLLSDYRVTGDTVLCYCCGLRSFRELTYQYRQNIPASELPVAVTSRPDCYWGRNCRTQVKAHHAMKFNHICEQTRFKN
UniProt P49759: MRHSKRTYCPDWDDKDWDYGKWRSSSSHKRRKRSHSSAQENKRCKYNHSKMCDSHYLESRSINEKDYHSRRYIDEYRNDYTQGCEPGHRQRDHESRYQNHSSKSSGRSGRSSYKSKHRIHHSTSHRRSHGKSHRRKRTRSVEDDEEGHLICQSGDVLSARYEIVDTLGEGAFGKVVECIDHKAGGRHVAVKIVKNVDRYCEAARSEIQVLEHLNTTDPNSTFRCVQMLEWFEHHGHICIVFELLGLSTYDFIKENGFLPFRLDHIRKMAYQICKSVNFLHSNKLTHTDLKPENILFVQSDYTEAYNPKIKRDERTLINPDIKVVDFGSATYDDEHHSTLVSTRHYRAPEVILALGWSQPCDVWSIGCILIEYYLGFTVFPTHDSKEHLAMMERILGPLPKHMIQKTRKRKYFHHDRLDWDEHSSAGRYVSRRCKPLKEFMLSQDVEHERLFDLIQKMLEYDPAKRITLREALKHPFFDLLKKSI
UniProt O43529: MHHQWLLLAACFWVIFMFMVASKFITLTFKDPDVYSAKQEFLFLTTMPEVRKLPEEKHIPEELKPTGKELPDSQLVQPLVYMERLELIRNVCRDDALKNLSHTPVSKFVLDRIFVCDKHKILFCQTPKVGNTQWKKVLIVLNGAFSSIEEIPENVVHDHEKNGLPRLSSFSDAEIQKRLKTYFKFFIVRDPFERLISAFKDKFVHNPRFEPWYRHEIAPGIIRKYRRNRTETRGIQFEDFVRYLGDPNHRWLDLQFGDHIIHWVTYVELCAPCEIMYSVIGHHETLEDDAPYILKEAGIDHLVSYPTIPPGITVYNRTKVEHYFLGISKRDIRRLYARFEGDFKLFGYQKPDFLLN
UniProt Q7Z460: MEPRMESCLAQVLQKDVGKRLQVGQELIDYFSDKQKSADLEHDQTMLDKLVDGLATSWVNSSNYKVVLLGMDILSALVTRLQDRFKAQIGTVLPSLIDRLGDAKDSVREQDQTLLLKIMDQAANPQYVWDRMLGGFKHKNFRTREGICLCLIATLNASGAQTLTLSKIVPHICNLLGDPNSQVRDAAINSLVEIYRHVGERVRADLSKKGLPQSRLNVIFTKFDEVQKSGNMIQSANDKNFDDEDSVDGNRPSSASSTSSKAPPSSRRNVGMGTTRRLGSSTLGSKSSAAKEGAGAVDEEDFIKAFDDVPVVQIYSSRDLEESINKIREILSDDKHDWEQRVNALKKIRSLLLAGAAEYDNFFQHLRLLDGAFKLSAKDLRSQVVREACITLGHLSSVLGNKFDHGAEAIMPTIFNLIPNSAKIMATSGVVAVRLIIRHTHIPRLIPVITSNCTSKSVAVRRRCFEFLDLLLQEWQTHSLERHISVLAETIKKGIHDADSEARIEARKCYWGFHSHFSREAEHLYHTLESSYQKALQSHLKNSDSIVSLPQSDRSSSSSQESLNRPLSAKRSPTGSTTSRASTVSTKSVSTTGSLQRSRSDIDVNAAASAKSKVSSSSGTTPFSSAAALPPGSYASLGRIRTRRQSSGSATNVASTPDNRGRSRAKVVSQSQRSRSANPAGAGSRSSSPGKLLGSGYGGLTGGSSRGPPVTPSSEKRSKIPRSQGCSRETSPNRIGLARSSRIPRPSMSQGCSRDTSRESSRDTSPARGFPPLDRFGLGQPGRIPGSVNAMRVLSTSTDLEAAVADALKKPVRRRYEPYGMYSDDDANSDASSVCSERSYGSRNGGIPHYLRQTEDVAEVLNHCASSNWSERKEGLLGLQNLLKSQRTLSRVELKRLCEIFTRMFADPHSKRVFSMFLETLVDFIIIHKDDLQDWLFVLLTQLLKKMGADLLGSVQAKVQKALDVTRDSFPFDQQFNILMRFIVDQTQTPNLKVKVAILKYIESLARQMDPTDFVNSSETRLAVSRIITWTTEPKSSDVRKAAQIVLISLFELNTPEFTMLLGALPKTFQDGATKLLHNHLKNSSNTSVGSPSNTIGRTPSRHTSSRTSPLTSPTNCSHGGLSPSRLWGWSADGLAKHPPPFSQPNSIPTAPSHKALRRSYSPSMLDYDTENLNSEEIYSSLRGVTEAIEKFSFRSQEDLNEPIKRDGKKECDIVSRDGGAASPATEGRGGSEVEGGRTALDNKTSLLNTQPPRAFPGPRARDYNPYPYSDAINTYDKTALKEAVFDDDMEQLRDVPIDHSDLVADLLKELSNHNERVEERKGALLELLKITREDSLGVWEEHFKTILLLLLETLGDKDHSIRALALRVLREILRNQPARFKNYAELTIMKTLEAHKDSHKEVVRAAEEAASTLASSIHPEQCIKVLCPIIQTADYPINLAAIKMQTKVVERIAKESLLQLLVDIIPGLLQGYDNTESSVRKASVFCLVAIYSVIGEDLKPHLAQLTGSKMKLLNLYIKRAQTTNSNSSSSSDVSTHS
UniProt Q86X52: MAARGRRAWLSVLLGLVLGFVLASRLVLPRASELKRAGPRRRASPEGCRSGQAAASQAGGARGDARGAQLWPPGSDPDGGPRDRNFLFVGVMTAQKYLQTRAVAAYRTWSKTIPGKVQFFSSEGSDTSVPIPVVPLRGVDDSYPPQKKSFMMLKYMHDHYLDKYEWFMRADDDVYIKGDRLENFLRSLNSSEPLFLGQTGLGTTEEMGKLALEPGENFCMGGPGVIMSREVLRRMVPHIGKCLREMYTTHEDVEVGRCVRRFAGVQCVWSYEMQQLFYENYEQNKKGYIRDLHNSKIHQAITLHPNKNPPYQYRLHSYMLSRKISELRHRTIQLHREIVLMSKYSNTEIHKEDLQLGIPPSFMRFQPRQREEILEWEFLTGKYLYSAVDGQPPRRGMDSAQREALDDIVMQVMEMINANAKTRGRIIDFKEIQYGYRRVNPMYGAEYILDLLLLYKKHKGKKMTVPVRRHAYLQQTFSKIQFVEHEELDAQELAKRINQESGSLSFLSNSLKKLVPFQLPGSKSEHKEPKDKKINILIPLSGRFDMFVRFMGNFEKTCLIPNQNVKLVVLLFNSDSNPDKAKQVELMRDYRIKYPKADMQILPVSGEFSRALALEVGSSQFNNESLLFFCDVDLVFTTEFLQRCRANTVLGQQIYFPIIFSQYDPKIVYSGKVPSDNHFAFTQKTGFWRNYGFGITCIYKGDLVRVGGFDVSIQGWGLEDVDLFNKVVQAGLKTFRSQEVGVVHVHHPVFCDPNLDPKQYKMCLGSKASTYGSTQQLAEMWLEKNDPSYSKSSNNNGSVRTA
UniProt Q9UDT6: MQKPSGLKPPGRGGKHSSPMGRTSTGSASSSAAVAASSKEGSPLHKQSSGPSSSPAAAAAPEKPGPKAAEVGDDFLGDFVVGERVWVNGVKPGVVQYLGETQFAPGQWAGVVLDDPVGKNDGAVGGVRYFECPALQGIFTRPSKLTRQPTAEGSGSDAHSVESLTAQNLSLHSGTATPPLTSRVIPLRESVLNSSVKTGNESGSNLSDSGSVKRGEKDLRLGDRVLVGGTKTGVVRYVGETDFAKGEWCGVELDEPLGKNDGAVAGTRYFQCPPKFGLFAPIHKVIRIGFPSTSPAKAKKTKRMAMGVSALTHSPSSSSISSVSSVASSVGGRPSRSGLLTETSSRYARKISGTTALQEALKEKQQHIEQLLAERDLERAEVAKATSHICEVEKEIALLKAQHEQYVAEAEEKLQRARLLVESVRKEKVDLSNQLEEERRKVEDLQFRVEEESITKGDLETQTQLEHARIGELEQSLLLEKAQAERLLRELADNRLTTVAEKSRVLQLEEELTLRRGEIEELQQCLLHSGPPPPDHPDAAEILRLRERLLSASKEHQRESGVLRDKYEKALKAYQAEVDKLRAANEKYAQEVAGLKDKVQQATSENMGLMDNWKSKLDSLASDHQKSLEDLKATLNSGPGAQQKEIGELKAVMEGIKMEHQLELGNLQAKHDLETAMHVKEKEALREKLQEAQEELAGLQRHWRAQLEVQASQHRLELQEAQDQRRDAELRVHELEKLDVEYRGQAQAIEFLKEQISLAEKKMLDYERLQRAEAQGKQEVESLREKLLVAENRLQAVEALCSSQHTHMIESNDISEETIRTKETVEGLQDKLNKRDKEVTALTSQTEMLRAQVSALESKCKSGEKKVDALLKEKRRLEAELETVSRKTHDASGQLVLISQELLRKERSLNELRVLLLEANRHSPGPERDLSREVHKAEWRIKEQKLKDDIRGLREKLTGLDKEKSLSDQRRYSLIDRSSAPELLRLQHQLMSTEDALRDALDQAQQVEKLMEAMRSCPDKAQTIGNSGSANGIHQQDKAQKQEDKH
UniProt O75503: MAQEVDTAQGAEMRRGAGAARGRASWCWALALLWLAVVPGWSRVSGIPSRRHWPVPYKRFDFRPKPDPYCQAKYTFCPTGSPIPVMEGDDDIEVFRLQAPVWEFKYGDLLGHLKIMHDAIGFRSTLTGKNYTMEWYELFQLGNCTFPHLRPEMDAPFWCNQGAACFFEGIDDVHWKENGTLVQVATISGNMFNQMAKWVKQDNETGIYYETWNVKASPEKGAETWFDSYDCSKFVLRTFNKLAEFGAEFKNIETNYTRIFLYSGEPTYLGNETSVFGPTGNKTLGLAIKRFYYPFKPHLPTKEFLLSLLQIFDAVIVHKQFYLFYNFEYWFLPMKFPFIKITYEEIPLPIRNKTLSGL

[2] = compound: C/C(=N\NC(=O)C1=CC(=CC=C1)S(=O)(=O)N2CCOCC2)/C3=C(C=CC(=C3)Cl)O
In short: as §1

[3] = compound: C1=CC(=CC=C1C2=NC3=C(N2)C=C(C=C3)C(=O)N)OC4=CC=C(C=C4)Cl
In short: as §1

[4] = compound: C1=CC2=C(C=CC(=C2)/C=C\3/C(=O)NC(=NCC4=CC=CS4)S3)N=C1
In short: as §1

[5] = compound: C1=CC2=NC=CN=C2C=C1/C=C/3\C(=O)NC(=O)S3
In short: as §1

[6] = compound: C1=CC=C(C=C1)C2=NC(=C(N2)C3=CC=NC=C3)C4=CC(=C(C=C4)Cl)O
In short: as §1

[7] = compound: C1=CC=C2C(=C1)C3=NNC4=CC=CC(=C43)C2=O
In short: as §1

[8] = compound: C1CCN(C1)C(=O)NC2=CC=CC(=C2)NC3=NC=C(C(=N3)NCCC4=CN=CN4)Br
In short: as §1

[9] = compound: C1CN(CCC1(CC2=CC=C(C=C2)Cl)N)C3=NC=NC4=C3C=CN4
In short: as §1

[10] = compound: C1COCCN1CCN2C3=CC=CC=C3N=C2NC(=O)C4=CC(=CC=C4)[N+](=O)[O-] [IRAK-1-4 Inhibitor I]
In short: as §1

[11] = compound: CC(=O)c1cnc2ccc(-c3cc(Cl)c(O)c(Cl)c3)nc2c1N[C@H]1CC[C@H](CN(C)C)CC1
In short: as §1

[12] = compound: CC(C)(C)Cn1c(N)nc2ccc(-c3[nH]c(C(C)(C)C)nc3-c3ccc(F)cc3)nc21 [ralimetinib]
In short: as §1

[13] = compound: CC(C)(O)CC(=O)NCCn1ccc2ncnc(Nc3ccc(Oc4cccc(C(F)(F)F)c4)c(Cl)c3)c21
In short: as §1

[14] = compound: CC(C)C1=C2N=C(C=C(N2N=C1)NCC3=CC=CC=C3)NCCCCCCN
In short: as §1

[15] = compound: CC1=C(C(CC(=O)N1)C2=CC=C(C=C2)C(F)(F)F)C(=O)NC3=C(C=C4C(=C3)C=NN4)F
In short: as §1

[16] = compound: CC1=C(C2=C(C=C1)C(=O)C3=CC=CC=C3N2CCCN)C
In short: as §1

[17] = compound: CC1=C(C=C(C=C1)NC(=O)C2=CC(=CC=C2)C(C)(C)C#N)NC3=CC4=C(C=C3)N=CN(C4=O)C
In short: as §1

[18] = compound: CC1=C(C=C(C=C1)NC(=O)C2=CC(=CC=C2)N(C)C)NC(=O)C3=CC=C(C=C3)O
In short: as §1

[19] = compound: CC1=CC=C(C=C1)SC2=C3C=C(SC3=CN=C2)C(=O)N
In short: as §1

[20] = compound: C=CC(=O)N1CCC[C@@H](n2nc(-c3ccc(Oc4ccccc4)cc3)c3c(N)ncnc32)C1 [ibrutinib]
In short: as §1

Measured: log2 fold change

CLDND1 (UniProt Q9NY35)
inactive: [1] -0.088 | [2] -0.05 | [3] -0.071 | [4] 0.015 | [5] 0.026 | [6] -0.021 | [7] -0.059 | [8] 0 | [9] -0.072 | [10] -0.033 | [11] 0.019 | [12] 0.051 | [13] 0.045 | [14] -0.028 | [15] 0 | [16] -0.042 | [17] 0.018 | [18] 0.046 | [19] -0.068

CHFR (UniProt Q96EP1)
inactive: [1] -0.011 | [2] 0.179 | [3] 0.066 | [4] -0.068 | [6] -0.027 | [7] 0.257 | [8] -0.023 | [9] -0.013 | [10] -0.011 | [11] 0.158 | [12] 0.007 | [13] -0.049 | [14] -0.047 | [15] 0.003 | [16] -0.06 | [17] -0.021 | [18] 0.031 | [19] 0.102

CLK1 isoform 3 (UniProt P49759)
inactive: [1] -0.078 | [3] -0.093 | [5] -0.048 | [6] 0.04 | [8] 0 | [9] 0.048 | [10] 0.123 | [11] -0.186 | [12] -0.128 | [13] -0.196 | [14] -0.022 | [15] 0.009 | [18] 0.039 | [19] 0.071

CHST10 (UniProt O43529)
inactive: [1] -0.029 | [2] -0.007 | [3] -0.103 | [4] 0.017 | [7] 0.052 | [14] -0.013

CLASP1 isoform 4 (UniProt Q7Z460)
inactive: [1] 0.199 | [2] -0.041 | [3] 0.04 | [4] -0.262 | [7] -0.029 | [14] -0.124 | [15] -0.226

CHSY1 (UniProt Q86X52)
inactive: [1] -0.101 | [3] -0.172 | [5] -0.06 | [6] -0.023 | [10] 0.035 | [20] -0.082 | [11] 0.101 | [12] -0.261 | [13] -0.22 | [14] 0.056 | [15] 0.156 | [16] -0.06 | [18] -0.082 | [19] -0.157

CLUAP1 (UniProt I3L2E1)
inactive: [1] 0.142 | [2] 0.362 | [3] 0.095 | [4] -0.404 | [5] 0.068 | [6] 0.102 | [7] -0.124 | [8] -0.171 | [9] 0.081 | [10] 0.179 | [11] -0.152 | [12] -0.248 | [13] -0.446 | [14] 0.128 | [15] -0.113 | [17] 0.28 | [18] -0.167 | [19] -0.215

CLIP2 (UniProt Q9UDT6)
inactive: [1] 0.027 | [3] 0.057 | [5] -0.05 | [8] 0.015 | [9] -0.153 | [11] -0.012 | [14] -0.067 | [16] -0.055 | [17] 0.024 | [19] -0.025

CLN5 (UniProt O75503)
inactive: [1] -0.084 | [2] 0.037 | [3] -0.039 | [4] 0.016 | [5] 0.141 | [7] -0.084 | [8] 0.048 | [9] 0.042 | [11] 0.04 | [14] 0.035 | [15] 0.119 | [19] 0.051
